Results on five compounds are retold here after PubChem BioAssay AID248 (DTP/NCI, 2004).

The list is a part of this screen's results and no random one: it is rich in T/C values a quarter to a half above the control, in often repeated tests (any T/C) and in doses without a T/C. Further doses and runs are listed elsewhere. T/C is the treated group as % of the vehicle group. Some entries give survivors of the animals treated and no T/C: the source holds a T/C of zero for them, seemingly a mark for toxic or unscored doses. Some doses without a T/C left all or most animals alive at the check, yet need not have been tolerated: survival well below the control is almost never listed, so the zero probably covers shortened survival too. Counts of survivors are from the toxicity check (mostly the fifth day) where no day follows; animals may have died later. Schedules are NCI's codes, taken here to give the interval after Q, in days (D) or hours (H), and the number of doses after X. Some entries hold several experiments; their values stand side by side, smallest first. Where survival is the endpoint, the PubChem record calls one and a half times the control and up active, and a quarter to a half above the control has no call in these data; cut-offs in other NCI protocols can differ. Some T/C values are followed by the survivors on the day toxicity was checked, most often the fifth; without a count, all were alive then.

The subject of this assay is L1210 leukemia ip in BDF1 mice, survival T/C. The assay is described as follows: NCI In Vivo Anticancer Drug Screen. Data for tumor model L1210 Leukemia (intraperitoneal) in B6D2F1 (BDF1) mice. As to conditions: T/C endpoint: mean survival time, higher T/C = longer survival.
Where [1] appears, read: dose: 200.0 mg/kg/injection, schedule: Q04DX003 (ip), vehicle: saline.

As for `C(CCSC1=NCCN1)CSC1=NCCN1`, the survivor count is reported as 1 of 3 (dose: 200.0 mg/kg/injection, schedule: Q04DX002 (ip), vehicle: saline) and 0 of 3 (dose: 400.0 mg/kg/injection, schedule: Q04DX002 (ip), vehicle: saline).
As to `CC(N)c1ccccc1Cl` (stereo not drawn), the survivor count reads like this: (dose: 100.0 mg/kg/injection, schedule: Q04DX003 (ip), vehicle: saline) 6 of 6; under setting [1], 4 of 6; (dose: 400.0 mg/kg/injection, schedule: Q04DX003 (ip), vehicle: saline) 0 of 6.
For the compound `Cn1ncc2c1NC(c1ccc(F)cc1)SCC2=O` (stereo not drawn), the T/C by setting is: (dose: 100.0 mg/kg/injection, schedule: Q01DX009 (ip), vehicle: gum acacia) 131 % of control; (dose: 200.0 mg/kg/injection, schedule: Q01DX009 (ip), vehicle: gum acacia) 129 % of control.
Regarding `CCCN(CCC)CCCOC(=O)c1ccc(N)cc1`, the survivor count was 3 of 6 and 6 of 6 (dose: 150.0 mg/kg/injection, schedule: Q04DX003 (ip), vehicle: saline); 2 of 6 under setting [1].
`O=C1C(N2CC2)=C(N2CC2)C(=O)C(N2CC2)=C1N1CC1`: the T/C is 149 % of control (dose: 0.01 mg/kg/injection, schedule: Q01DX009 (ip), vehicle: saline); 133 % of control (dose: 0.02 mg/kg/injection, schedule: Q01DX009 (ip), vehicle: saline); 138 % of control (dose: 0.12 mg/kg/injection, schedule: Q01DX009 (ip), vehicle: saline); 134 % of control (dose: 0.25 mg/kg/injection, schedule: Q01DX001 (ip), vehicle: saline); 131 % of control [5 of 6 alive] (dose: 0.5 mg/kg/injection, schedule: Q01DX001 (ip), vehicle: saline). Also, the survivor count is 6 of 6 (dose: 0.04 mg/kg/injection, schedule: Q01DX009 (ip), vehicle: saline); 6 of 6 (dose: 0.08 mg/kg/injection, schedule: Q01DX009 (ip), vehicle: saline); 6 of 6 (dose: 0.25 mg/kg/injection, schedule: Q01DX009 (ip), vehicle: saline); 3 of 6 (dose: 0.5 mg/kg/injection, schedule: Q01DX009 (ip), vehicle: saline); 4 of 6 (dose: 1.0 mg/kg/injection, schedule: Q01DX001 (ip), vehicle: saline); 4 of 6 (dose: 1.0 mg/kg/injection, schedule: Q01DX009 (ip), vehicle: saline). The survivor count by setting is: (dose: 2.5 mg/kg/injection, schedule: Q01DX001 (ip), vehicle: saline) 0 of 6; (dose: 5.0 mg/kg/injection, schedule: Q01DX001 (ip), vehicle: saline) 0 of 6; (dose: 10.0 mg/kg/injection, schedule: Q01DX001 (ip), vehicle: saline) 1 of 6; (dose: 20.0 mg/kg/injection, schedule: Q01DX001 (ip), vehicle: saline) 0 of 6; (dose: 40.0 mg/kg/injection, schedule: Q01DX001 (ip), vehicle: saline) 0 of 6; (dose: 75.0 mg/kg/injection, schedule: Q01DX001 (ip), vehicle: saline) 0 of 6. Further, the survivor count was 0 of 6 (dose: 150.0 mg/kg/injection, schedule: Q01DX001 (ip), vehicle: saline) and 0 of 6 (dose: 300.0 mg/kg/injection, schedule: Q01DX001 (ip), vehicle: saline).
